Assay results as given in the supplement of paper PMC12067093, “Discovery and optimisation of a covalent ligand for TRIM25 and its application to targeted protein ubiquitination” (Chemical Science, 2025).
The other results are listed elsewhere or left out.

Sequences of proteins named here, by UniProt entry; tags and fusion partners are left off. A change or cut given only in a name is not applied to a line headed by its entry.
UniProt Q9Y2E5: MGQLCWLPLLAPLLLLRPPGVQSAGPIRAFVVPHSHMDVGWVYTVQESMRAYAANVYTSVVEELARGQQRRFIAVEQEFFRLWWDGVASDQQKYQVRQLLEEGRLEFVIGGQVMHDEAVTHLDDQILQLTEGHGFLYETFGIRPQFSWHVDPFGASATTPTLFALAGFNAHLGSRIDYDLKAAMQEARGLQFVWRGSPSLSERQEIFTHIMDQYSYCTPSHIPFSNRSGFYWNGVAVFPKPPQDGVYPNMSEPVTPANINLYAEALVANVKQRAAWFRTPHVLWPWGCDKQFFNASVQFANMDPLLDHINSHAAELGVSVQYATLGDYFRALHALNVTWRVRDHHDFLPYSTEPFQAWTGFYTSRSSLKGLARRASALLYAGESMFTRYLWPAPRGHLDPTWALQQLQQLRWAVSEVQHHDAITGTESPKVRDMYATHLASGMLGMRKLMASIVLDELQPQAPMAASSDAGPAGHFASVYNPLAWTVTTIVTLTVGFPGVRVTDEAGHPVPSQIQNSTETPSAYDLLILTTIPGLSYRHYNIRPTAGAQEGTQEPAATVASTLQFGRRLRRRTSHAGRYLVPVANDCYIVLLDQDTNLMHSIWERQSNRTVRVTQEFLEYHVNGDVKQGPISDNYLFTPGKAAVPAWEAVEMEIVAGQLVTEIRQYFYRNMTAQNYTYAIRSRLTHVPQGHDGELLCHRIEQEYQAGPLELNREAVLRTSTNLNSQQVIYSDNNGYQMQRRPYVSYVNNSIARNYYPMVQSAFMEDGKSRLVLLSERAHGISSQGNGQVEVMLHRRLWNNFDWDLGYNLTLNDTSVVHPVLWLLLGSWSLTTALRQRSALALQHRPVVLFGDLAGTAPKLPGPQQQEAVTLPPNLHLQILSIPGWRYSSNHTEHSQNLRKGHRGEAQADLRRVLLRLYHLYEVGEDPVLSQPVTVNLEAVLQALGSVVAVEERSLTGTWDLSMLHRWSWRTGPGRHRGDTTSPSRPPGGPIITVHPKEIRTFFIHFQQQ
UniProt O95243: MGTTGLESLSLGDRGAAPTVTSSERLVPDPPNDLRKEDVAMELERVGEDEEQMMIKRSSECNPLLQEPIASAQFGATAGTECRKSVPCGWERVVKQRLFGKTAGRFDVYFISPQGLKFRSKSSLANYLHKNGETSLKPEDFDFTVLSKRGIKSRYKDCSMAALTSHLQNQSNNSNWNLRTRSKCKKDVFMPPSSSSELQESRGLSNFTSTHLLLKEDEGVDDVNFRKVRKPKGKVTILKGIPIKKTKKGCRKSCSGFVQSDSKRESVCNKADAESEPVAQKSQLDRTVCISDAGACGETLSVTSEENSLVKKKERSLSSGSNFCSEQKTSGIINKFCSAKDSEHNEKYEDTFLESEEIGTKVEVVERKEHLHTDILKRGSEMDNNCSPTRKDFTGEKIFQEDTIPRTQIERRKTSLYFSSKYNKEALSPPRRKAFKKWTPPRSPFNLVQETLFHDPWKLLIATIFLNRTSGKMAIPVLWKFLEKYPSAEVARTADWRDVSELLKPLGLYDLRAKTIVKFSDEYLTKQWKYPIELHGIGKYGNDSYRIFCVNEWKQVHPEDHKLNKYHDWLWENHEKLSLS
UniProt O95232: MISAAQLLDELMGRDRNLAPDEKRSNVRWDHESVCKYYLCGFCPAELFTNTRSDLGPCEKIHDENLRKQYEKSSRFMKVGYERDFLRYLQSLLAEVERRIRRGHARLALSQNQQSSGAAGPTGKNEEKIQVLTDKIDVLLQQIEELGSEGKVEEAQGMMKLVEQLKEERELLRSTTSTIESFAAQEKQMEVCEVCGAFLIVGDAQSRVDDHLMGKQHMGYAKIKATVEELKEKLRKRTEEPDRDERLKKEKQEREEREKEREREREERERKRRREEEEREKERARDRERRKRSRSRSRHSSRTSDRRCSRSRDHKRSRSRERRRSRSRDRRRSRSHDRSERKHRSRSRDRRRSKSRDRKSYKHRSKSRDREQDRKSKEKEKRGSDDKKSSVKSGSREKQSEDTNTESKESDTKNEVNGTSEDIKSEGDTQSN
UniProt Q66K74: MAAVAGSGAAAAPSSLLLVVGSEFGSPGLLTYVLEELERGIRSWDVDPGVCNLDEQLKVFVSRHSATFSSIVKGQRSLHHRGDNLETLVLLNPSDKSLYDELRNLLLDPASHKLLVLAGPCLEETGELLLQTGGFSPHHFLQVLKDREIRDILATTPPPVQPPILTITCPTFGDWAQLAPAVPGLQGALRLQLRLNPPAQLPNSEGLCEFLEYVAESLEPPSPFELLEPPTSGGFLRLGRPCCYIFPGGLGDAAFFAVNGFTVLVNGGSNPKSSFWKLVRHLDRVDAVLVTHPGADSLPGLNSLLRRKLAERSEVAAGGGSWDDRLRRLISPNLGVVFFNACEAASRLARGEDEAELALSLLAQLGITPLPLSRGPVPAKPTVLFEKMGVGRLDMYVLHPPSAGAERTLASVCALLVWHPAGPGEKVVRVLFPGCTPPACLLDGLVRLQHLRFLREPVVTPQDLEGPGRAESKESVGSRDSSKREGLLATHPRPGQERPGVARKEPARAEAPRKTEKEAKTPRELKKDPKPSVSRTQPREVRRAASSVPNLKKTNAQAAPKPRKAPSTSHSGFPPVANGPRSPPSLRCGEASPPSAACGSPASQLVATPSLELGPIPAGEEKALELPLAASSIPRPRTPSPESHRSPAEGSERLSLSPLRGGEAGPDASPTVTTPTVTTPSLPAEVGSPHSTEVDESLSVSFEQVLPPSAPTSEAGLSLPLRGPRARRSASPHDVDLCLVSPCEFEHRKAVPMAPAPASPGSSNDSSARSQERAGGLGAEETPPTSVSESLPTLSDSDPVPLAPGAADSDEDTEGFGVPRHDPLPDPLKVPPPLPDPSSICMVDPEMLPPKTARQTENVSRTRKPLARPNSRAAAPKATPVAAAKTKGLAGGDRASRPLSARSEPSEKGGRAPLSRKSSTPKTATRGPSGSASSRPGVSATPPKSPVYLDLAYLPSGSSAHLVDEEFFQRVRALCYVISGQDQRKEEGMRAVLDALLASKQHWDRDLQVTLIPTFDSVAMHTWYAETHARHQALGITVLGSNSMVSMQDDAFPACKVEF
UniProt O60449: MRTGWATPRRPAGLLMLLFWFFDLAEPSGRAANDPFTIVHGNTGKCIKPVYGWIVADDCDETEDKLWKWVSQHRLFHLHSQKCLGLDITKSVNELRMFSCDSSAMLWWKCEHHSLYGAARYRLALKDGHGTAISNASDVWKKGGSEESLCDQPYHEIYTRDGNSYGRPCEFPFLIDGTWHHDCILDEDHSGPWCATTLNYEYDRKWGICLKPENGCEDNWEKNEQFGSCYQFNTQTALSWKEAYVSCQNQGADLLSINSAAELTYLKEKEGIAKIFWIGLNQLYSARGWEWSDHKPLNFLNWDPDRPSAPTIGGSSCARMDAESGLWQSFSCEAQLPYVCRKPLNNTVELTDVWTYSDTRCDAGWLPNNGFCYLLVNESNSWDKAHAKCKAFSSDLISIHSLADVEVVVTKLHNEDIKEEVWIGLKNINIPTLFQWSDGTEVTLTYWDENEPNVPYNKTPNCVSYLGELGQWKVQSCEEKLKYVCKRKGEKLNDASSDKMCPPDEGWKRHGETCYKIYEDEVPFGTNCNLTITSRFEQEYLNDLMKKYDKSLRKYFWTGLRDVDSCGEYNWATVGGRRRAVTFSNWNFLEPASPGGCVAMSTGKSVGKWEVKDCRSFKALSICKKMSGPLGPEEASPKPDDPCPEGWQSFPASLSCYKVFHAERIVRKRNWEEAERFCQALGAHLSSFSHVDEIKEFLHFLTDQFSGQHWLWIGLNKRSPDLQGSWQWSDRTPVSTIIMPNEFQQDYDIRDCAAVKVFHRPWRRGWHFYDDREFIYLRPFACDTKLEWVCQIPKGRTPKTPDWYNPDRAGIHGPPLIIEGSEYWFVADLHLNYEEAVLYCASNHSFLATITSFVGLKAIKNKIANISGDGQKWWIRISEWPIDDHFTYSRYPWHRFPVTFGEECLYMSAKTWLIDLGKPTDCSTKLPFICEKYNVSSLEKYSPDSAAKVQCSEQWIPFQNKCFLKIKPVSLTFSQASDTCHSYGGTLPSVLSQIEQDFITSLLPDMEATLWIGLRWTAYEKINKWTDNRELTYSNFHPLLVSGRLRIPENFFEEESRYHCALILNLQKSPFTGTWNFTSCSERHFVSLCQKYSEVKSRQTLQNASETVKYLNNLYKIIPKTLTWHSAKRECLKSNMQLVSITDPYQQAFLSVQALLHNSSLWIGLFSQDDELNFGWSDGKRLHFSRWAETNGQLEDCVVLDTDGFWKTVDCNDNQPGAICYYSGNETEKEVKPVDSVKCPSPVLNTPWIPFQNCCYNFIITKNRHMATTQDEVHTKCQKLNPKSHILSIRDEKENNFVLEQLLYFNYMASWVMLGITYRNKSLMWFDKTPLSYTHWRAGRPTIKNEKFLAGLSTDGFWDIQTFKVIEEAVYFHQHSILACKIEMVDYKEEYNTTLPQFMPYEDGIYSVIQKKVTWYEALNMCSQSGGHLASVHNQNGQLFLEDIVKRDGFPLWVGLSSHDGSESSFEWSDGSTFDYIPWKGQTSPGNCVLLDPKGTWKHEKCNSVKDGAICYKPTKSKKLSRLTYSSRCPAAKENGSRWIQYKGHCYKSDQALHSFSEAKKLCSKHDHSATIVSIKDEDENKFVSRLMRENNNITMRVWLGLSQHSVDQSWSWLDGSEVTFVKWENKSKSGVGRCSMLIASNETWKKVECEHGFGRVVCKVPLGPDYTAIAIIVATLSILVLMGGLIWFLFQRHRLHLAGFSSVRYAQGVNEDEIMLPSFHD
UniProt Q92918, whole entry, looked up: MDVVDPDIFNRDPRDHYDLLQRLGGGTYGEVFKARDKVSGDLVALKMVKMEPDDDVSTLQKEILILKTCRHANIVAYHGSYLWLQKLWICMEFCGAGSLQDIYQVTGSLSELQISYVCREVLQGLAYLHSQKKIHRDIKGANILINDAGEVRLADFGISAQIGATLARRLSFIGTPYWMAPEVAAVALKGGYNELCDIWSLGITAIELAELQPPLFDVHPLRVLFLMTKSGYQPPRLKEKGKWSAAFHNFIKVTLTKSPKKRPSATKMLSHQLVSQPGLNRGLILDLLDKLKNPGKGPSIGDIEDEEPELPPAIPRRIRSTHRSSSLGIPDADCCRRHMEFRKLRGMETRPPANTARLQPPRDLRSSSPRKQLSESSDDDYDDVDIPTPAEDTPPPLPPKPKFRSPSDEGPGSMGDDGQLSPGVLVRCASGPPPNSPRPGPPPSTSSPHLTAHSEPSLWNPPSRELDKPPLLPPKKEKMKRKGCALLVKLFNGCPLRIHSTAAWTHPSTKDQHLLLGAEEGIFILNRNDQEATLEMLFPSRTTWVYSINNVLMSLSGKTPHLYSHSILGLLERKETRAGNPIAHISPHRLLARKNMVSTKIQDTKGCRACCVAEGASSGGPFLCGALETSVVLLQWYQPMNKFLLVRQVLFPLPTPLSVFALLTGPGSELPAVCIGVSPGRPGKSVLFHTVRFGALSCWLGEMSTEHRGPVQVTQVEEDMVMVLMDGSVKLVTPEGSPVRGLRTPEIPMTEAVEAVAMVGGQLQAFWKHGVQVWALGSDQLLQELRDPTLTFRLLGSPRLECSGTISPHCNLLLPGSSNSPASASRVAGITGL
UniProt Q7L5Y9: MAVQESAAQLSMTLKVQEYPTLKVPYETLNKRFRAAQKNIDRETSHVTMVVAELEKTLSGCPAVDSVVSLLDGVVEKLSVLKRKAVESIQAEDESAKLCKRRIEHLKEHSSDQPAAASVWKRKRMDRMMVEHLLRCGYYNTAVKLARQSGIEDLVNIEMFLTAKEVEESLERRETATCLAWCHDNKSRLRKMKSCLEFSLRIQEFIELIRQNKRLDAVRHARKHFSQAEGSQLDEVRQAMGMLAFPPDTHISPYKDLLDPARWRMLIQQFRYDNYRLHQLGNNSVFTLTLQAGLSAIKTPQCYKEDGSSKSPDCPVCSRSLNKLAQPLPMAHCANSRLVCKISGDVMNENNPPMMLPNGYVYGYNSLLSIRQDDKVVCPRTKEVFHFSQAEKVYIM
UniProt Q5VT66: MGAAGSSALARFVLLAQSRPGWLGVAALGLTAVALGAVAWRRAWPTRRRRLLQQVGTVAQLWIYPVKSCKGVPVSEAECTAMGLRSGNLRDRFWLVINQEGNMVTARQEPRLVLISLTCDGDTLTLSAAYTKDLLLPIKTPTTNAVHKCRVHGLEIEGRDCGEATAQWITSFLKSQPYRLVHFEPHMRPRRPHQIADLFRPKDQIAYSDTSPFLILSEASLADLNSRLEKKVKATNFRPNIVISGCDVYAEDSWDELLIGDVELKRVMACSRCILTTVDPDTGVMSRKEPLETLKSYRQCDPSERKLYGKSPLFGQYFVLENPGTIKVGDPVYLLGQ

Compound: Cc1cc(ccc1-c1ccccc1)C(=O)N1CCCN(CC1)C(=O)CCl [compound 10]
Assay: probe-labelled cysteine peptide fold change vs DMSO (competition) (log2 fold change); higher = less target engagement (more negative = stronger competition)
Settings: THP-1, incubation time: 4 h
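Also: competitive profiling in live THP-1 cells: cysteine peptides tagged with an iodoacetamide desthiobiotin (IA-DTB) probe, intensity after compound treatment relative to DMSO-treated cells.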

Target | probe-labelled cysteine peptide fold change (10 µM) | probe-labelled cysteine peptide fold change (50 µM)
MAN2B2_Q9Y2E5_288_TPHVLWPWGCDK (UniProt Q9Y2E5) | 0.102 | 0.298
MCCC1_Q96RQ3_600_CSVNGVASK (UniProt Q96RQ3) | 0.185 | 0.0796
M6PR_P20645_145_AVVMISCNR (UniProt P20645) | -0.268 | -0.155
MBD1_Q9UIS9_350_RMDCGR (UniProt Q9UIS9) | 0.0601 | -0.0405
MAP3K5_Q99683_391_ALDIMIPMVQSEGQVASDMYCLVGR (UniProt Q99683) | 0.187 | 0.0264
MACF1_Q9UPN3_5049_HQLEIFDALGSQACSNK (UniProt Q9UPN3) | 0.26 | 0.168
MBD4_O95243_549_IFCVNEWK (UniProt O95243) | 0.00198 | -0.0746
LUC7L3_O95232_40+43_YYLCGFCPAELFTNTR (UniProt O95232) | 0.232 | -0.733
MAP1S_Q66K74_743_SASPHDVDLCLVSPCEFEHR (UniProt Q66K74) | -0.443 | -0.145
MACF1_Q9UPN3_4325_DASSCQEQLDEFRK (UniProt Q9UPN3) | -0.119 | 0.229
MAP2K6_P52564_216_TIDAGCK (UniProt P52564) | -0.048 | 0.239
MAP4_P27816_635_CSLPAEEDSVLEK (UniProt P27816) | -0.14 | -0.133
LYZ_P61626_48_GISLANWMCLAK (UniProt P61626) | -0.195 | -0.123
LY75_O60449_566_DVDSCGEYNWATVGGR (UniProt O60449) | -0.0863 | 0.151
LUC7L3_O95232_58_SDLGPCEK (UniProt O95232) | -0.112 | -0.363
MBD4_O95243_296_TVCISDAGACGETLSVTSEENSLVK (UniProt O95243) | -0.0617 | 0.132
MAP4K1_Q92918_334+335_SSSLGIPDADCCR (UniProt Q92918) | -0.26 | -1.18
MAP10_Q9P2G4_648_IQSPCVFQQDAVVDR (UniProt Q9P2G4) | -0.226 | -0.182
MAEA_Q7L5Y9_333_LAQPLPMAHCANSR (UniProt Q7L5Y9) | -0.0143 | -0.466
LUC7L_Q9NQ29_97_DLFFELDAMDHLESFIAECDRR (UniProt Q9NQ29) | 0.323 | 0.299

Two entries drawn at random from those above:
Target | probe-labelled cysteine peptide fold change (10 µM) | probe-labelled cysteine peptide fold change (50 µM)
MAEA_Q7L5Y9_333_LAQPLPMAHCANSR (UniProt Q7L5Y9) | -0.0143 | -0.466
MAN2B2_Q9Y2E5_288_TPHVLWPWGCDK (UniProt Q9Y2E5) | 0.102 | 0.298

(further entries)

Target | probe-labelled cysteine peptide fold change (10 µM) | probe-labelled cysteine peptide fold change (50 µM)
MAPK3_P27361_82_KISPFEHQTYCQR (UniProt P27361) | -0.0395 | -0.187
MAP3K8_P41279_398_CQSLDSALLER (UniProt P41279) | -0.276 | -0.883
MACF1_Q9UPN3_1806_HNLIDQDMACAILIR (UniProt Q9UPN3) | 0.133 | 0.288
MAP4K1_Q92918_428_CASGPPPNSPR (UniProt Q92918) | -0.175 | -0.144
MARS_P56192_309_LRQWNTLYLCGTDEYGTATETK (UniProt P56192) | -0.0574 | -0.17
MAP1S_Q66K74_738_SASPHDVDLCLVSPCEFEHR (UniProt Q66K74) | -0.0926 | -0.165
MAU2_Q9Y6X3_145_AIQISQQTPYWHCR (UniProt Q9Y6X3) | 0.0736 | -0.302
MCCC2_Q9HCC0_167_LPCIYLVDSGGAYLPR (UniProt Q9HCC0) | 0.399 | 0.261
MARC1_Q5VT66_79_GVPVSEAECTAMGLR (UniProt Q5VT66) | 0.0332 | -0.213
LY75_O60449_1380_VIEEAVYFHQHSILACK (UniProt O60449) | 0.36 | 0.343
LY75_O60449_1060_YHCALILNLQK (UniProt O60449) | -0.0365 | 0.209
MASP1_P48740-2_630_LPVVPHAECK (UniProt P48740) | -0.427 | -0.337
MAP4K3_Q8IVH8_509_DGSLCQQQNEHR (UniProt Q8IVH8) | -0.137 | -0.716
MAPK8_P45983_163_SDCTLK (UniProt P45983) | -0.283 | -1.24
MAN2C1_Q9NTJ4_871_WMDLSEHGFGLALLNDCK (UniProt Q9NTJ4) | 0.238 | 0.569
MAP10_Q9P2G4_273_TNSVVTCSGAGNGR (UniProt Q9P2G4) | -0.369 | -0.505
MAN2A2_P49641_382_INCPWK (UniProt P49641) | -0.0275 | -0.051
MATR3_P43243_230_CRDDSFFGETSHNYHK (UniProt P43243) | 0.00308 | -0.311
MAP1S_Q66K74_435+440_VLFPGCTPPACLLDGLVR (UniProt Q66K74) | -0.0708 | -0.133
